Results reported in patent US20240389593A1, “HETEROCYCLIC COMPOUND AND USE THEREOF” (KUMIAI CHEMICAL INDUSTRY CO., LTD., priority 2021, published 2024).
Some entries share one result that the patent states for a list of compounds.

Legend:
Format in all cases: in vivo
Plutella xylostella = experiment: Test on insecticidal activity in Plutella xylostella (cabbage leaf dip); conditions: 500 ppm active ingredient (wettable powder diluted with water), cabbage leaves dipped, second-instar larvae, 25° C., 6 days after treatment
Method: (§1) A wettable powder prepared according to formulation example 2 was diluted with water to a concentration of 500 ppm as the active ingredient. Some cabbage leaves were dipped in the drug solution, air-dried, and then placed in a plastic cup. Ten second-instar larvae of Plutella xylostella were put on the treated leaves, and the cup was covered with a lid. Then, it was placed in a room at constant temperature of 25° C. The number of dead insects was investigated at 6 days after treatment. Mortality rate was calculated using the formula 1. The number of replication was one in each test.

Aphis gossypii = experiment: Test on pest control effect in Aphis gossypii (cucumber nursery plant dip); conditions: 500 ppm active ingredient (wettable powder diluted with water), cucumber nursery plants inoculated with larvae dipped, 25° C., 3 days after treatment
Method: [Test example 4] Test on pest control effect in Aphis gossypii A wettable powder prepared according to formulation example 2 was diluted with water to a concentration of 500 ppm as the active ingredient. Some nursery plant of cucumber previously inoculated with larvae of Aphis gossypii were dipped in the drug solution and air-dried. The treated nursery plants of cucumber were placed in a room at constant temperature of 25° C. The number of surviving insects was counted at 3 days after the treatment. Mortality rate was calculated using the formula 1. The number of replication was one in each test.

Nilaparvata lugens = experiment: Test on insecticidal activity in Nilaparvata lugens (rice sprout dip); conditions: 500 ppm active ingredient (wettable powder diluted with water), rice sprouts dipped, second-instar larvae, 25° C., 6 days after treatment
Method: A wettable powder prepared according to formulation example 2 was diluted with water to a concentration of 500 ppm as the active ingredient. Some rice sprouts were dipped in the drug solution and placed in a plastic cup. Ten second-instar larvae of Nilaparvata lugens were put on the treated leaves, and the cup was covered with a lid. Then, it was placed in a constant room temperature of 25° C. The number of dead insects was investigated at 6 days after the treatment. Mortality rate was calculated using the formula 1. The number of replication was one in each test.

Helicoverpa armigera = experiment: Test on insecticidal activity in Helicoverpa armigera (cabbage leaf dip); conditions: 500 ppm active ingredient (wettable powder diluted with water), cabbage leaves dipped, hatching larvae, 25° C., 6 days after treatment
Method: as §1, with “Five hatching” for “Ten second-instar”, “Helicoverpa armigera” for “Plutella xylostella”, “after the” for “after”, “two” for “one”

Structure (SMILES)	mortality (Plutella xylostella) [%]	mortality (Aphis gossypii) [%]	mortality (Nilaparvata lugens) [%]	mortality (Helicoverpa armigera) [%]
CCS(=O)(=O)c1c(-n2cc(OCC(F)(F)C(F)(F)C(F)(F)F)cn2)nc2ccc(C#N)cn12 [A-0042]	≥ 90	≥ 90	–	–
CCS(=O)(=O)c1c(-n2cc(OCC(F)(F)C(F)(F)C(F)(F)F)cn2)nc2ccc(CC#N)cn12 [A-0045]	≥ 90	≥ 90	≥ 90	–
CCS(=O)(=O)c1c(-n2cc(OCC(F)(F)C(F)(F)C(F)(F)F)cn2)nc2ccc(C3CCC3)cn12 [A-0050]	≥ 90	≥ 90	≥ 90	–
CCS(=O)(=O)c1c(-n2cc(OCC(F)(F)C(F)(F)C(F)(F)F)cn2)nc2ccc(C3CC3(F)F)cn12 (centres unmarked) [A-0056]	≥ 90	≥ 90	≥ 90	–
CCS(=O)(=O)c1c(-n2cc(OCC(F)(F)C(F)(F)C(F)(F)F)cn2)nc2ccc(-c3ccc(F)cc3)cn12 [A-0060]	≥ 90	–	–	–
CCS(=O)(=O)c1c(-n2cc(OCC(F)(F)C(F)(F)C(F)(F)F)cn2)nc2ccc(-c3cccnc3)cn12 [A-0068]	≥ 90	–	–	–
CCS(=O)(=O)c1c(-n2cc(OCC(F)(F)C(F)(F)C(F)(F)F)cn2)nc2ccc(-c3ccc(C(F)(F)F)nc3)cn12 [A-0075]	≥ 90	–	–	–
CCS(=O)(=O)c1c(-n2cc(OCC(F)(F)C(F)(F)C(F)(F)F)cn2)nc2ccc(SC)cn12 [A-0162]	≥ 90	≥ 90	≥ 90	–
CCS(=O)(=O)c1c(-n2cc(OCC(F)(F)C(F)(F)C(F)(F)F)cn2)nc2ccc(C=O)cn12 [A-0184]	≥ 90	≥ 90	≥ 90	–
CCS(=O)(=O)c1c(-n2cc(OCC(F)(F)C(F)(F)C(F)(F)F)cn2)nc2ccc(C(C)=O)cn12 [A-0185]	≥ 90	≥ 90	–	–
CCS(=O)(=O)c1c(-n2cc(OCC(F)(F)C(F)(F)C(F)(F)F)cn2)nc2ccc(C=NOC)cn12 [A-0189]	≥ 90	≥ 90	–	–
CCS(=O)(=O)c1c(-n2cc(OCC(F)(F)C(F)(F)C(F)(F)F)cn2)nc2ccc(C(=O)O)cn12 [A-0192]	≥ 90	–	–	–
CCS(=O)(=O)c1c(-n2cc(OCC(F)(F)C(F)(F)C(F)(F)F)cn2)nc2ccc(C(=O)OC)cn12 [A-0193]	≥ 90	–	–	–
CCS(=O)(=O)c1c(-n2cc(OCC(F)(F)C(F)(F)C(F)(F)F)cn2)nc2ccc(C(N)=O)cn12 [A-0195]	≥ 90	≥ 90	–	–
CCS(=O)(=O)c1c(-n2cc(OCC(F)(F)C(F)(F)C(F)(F)F)cn2)nc2ccc(C(=O)NC3CC3)cn12 [A-0199]	≥ 90	≥ 90	–	–
CCS(=O)(=O)c1c(-n2cc(OCC(F)(F)C(F)(F)C(F)(F)F)cn2)nc2cc(Br)ccn12 [A-0256]	≥ 90	–	–	–
CCS(=O)(=O)c1c(-n2cc(OCC(F)(F)C(F)(F)C(F)(F)F)cn2)nc2cc(C(F)(F)F)ccn12 [A-0259]	≥ 90	≥ 90	–	≥ 90
CCS(=O)(=O)c1c(-n2cc(OCC3(C(F)(F)F)OCCO3)cn2)nc2ccc(C(F)(F)F)cn12 [A-0458]	≥ 90	–	–	≥ 90
CCc1ccc2nc(-n3cc(OCC(F)(F)C(F)(F)C(F)(F)F)cn3)c(S(=O)(=O)CC)n2c1 [A-0579]	≥ 90	≥ 90	≥ 90	–
CCS(=O)(=O)c1c(-n2cc(OCC(F)(F)C(F)(F)C(F)(F)F)cn2)nc2ccc(C(C)C)cn12 [A-0580]	≥ 90	≥ 90	≥ 90	–

Structure (SMILES)	mortality (Plutella xylostella) [%]	mortality (Aphis gossypii) [%]	mortality (Nilaparvata lugens) [%]	mortality (Helicoverpa armigera) [%]
C=Cc1ccc2nc(-n3cc(OCC(F)(F)C(F)(F)C(F)(F)F)cn3)c(S(=O)(=O)CC)n2c1 [A-0581]	≥ 90	≥ 90	–	–
C=C(C)c1ccc2nc(-n3cc(OCC(F)(F)C(F)(F)C(F)(F)F)cn3)c(S(=O)(=O)CC)n2c1 [A-0582]	≥ 90	≥ 90	–	–
CCS(=O)(=O)c1c(-n2cc(OCC(F)(F)C(F)(F)C(F)(F)F)cn2)nc2ccc(C=CC3CC3)cn12 [A-0583]	≥ 90	–	–	≥ 90
CCS(=O)(=O)c1c(-n2cc(OCC(F)(F)C(F)(F)C(F)(F)F)cn2)nc2ccc(C3(O)CC3)cn12 [A-0585]	≥ 90	≥ 90	–	–
CCS(=O)(=O)c1c(-n2cc(OCC(F)(F)C(F)(F)C(F)(F)F)cn2)nc2ccc(-c3ccccc3C#N)cn12 [A-0587]	≥ 90	–	–	≥ 90
CCS(=O)(=O)c1c(-n2cc(OCC(F)(F)C(F)(F)C(F)(F)F)cn2)nc2ccc(-c3nccs3)cn12 [A-0590]	≥ 90	≥ 90	–	–
CCS(=O)(=O)c1c(-n2cc(OCC(F)(F)C(F)(F)C(F)(F)F)cn2)nc2ccc(S(C)=NC#N)cn12 (centres unmarked) [A-0592]	≥ 90	≥ 90	≥ 90	–
CCS(=O)(=O)c1c(-n2cc(OCC(F)(F)C(F)(F)C(F)(F)F)cn2)nc2ccc(S(C)=NC(=O)C(F)(F)F)cn12 (centres unmarked) [A-0593]	≥ 90	≥ 90	≥ 90	–
CCS(=O)(=O)c1c(-n2cc(OCC(F)(F)C(F)(F)C(F)(F)F)cn2)nc2ccc(S(C)(=N)=O)cn12 (centres unmarked) [A-0594]	≥ 90	≥ 90	≥ 90	–
CCS(=O)(=O)c1c(-n2cc(OCC(F)(F)C(F)(F)C(F)(F)F)cn2)nc2ccc(P(C)(C)=O)cn12 [A-0595]	≥ 90	≥ 90	≥ 90	–
CCS(=O)(=O)c1c(-n2cc(OCC(F)(F)C(F)(F)C(F)(F)F)cn2)nc2ccc(C(C)=NOC)cn12 [A-0596]	≥ 90	≥ 90	–	–
CCS(=O)(=O)c1c(-n2cc(OCC(F)(F)C(F)(F)C(F)(F)F)cn2)nc2ccc(C(=O)NC3(C#N)CC3)cn12 [A-0597]	≥ 90	≥ 90	–	–
CCS(=O)(=O)c1c(-n2cc(OCC(F)(F)C(F)(F)C(F)(F)F)cn2)nc2ccc(C(=O)NC=NOC)cn12 [A-0598]	≥ 90	≥ 90	–	–
CCS(=O)(=O)c1c(-n2cc(OCC(F)(F)C(F)(F)C(F)(F)F)cn2)nc2ccc(C(=O)N=CN(C)C)cn12 [A-0599]	≥ 90	≥ 90	–	–
CCS(=O)(=O)c1c(-n2cc(OCC(F)(F)C(F)(F)C(F)(F)F)cn2)nc2ccc(C(N)=S)cn12 [A-0600]	≥ 90	≥ 90	≥ 90	–
CCS(=O)(=O)c1c(-n2cc(Oc3cccc(C(F)(F)F)n3)cn2)nc2ccc(C(F)(F)F)cn12 [A-0602]	≥ 90	–	–	–
CCS(=O)(=O)c1c(-n2cc(Oc3ncccc3C(F)(F)F)cn2)nc2ccc(C3CC3)cn12 [A-0603]	≥ 90	≥ 90	–	–
CCS(=O)(=O)c1c(-n2cc(Oc3ccc(C(F)(F)F)cn3)cn2)nc2ccc(C3CC3)cn12 [A-0604]	≥ 90	≥ 90	–	–
CCS(=O)(=O)c1c(-n2cc(Oc3cccc(C(F)(F)F)n3)cn2)nc2ccc(C3CC3)cn12 [A-0605]	≥ 90	≥ 90	≥ 90	–
CCS(=O)(=O)c1c(-n2cc(Oc3ncc(C(F)(F)F)cn3)cn2)nc2ccc(C3CC3)cn12 [A-0606]	≥ 90	–	–	–
